Measured values: patent publication US20180325937A1
No constants are given. Whether binding was seen depends on the method and setting. Binding seen in cells or lysates may run through a third protein. Some entries that bind do so weakly or less than the wild type.

Protein sequences, listed by entry. Tags and fused reporters are not part of them.
UniProt Q9C005: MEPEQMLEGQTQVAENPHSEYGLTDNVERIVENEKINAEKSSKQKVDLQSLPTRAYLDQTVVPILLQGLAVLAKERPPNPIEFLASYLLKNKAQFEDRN
UniProt Q99496: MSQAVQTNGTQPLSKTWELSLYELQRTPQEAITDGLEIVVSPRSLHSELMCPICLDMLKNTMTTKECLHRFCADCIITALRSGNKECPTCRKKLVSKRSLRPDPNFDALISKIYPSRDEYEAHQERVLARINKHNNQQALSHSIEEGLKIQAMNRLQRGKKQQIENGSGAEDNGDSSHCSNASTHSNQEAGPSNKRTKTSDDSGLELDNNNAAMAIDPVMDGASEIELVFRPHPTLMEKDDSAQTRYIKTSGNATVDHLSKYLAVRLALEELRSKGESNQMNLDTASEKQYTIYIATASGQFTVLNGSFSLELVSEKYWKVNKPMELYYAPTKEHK
UniProt B3EWG3: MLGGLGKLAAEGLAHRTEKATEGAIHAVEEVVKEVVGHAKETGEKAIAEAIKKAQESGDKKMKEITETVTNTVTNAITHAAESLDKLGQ

Tests used:
[1] = target: N-terminal FLAG-tagged DPY-30 construct (in pT7CFE1 vector) (UniProt Q9C005); assay: co-immunoprecipitation of in vitro translated proteins with anti-HA gel, anti-FLAG western blot; only R2R1 and DPY-30 in the mixture (lane 2)
[2] = target: N-terminal FLAG-tagged RNF2 construct (in pT7CFE1 vector) (UniProt Q99496); assay: co-immunoprecipitation of in vitro translated proteins with anti-HA gel, anti-FLAG western blot; other FLAG-tagged PcG/TrxG proteins present

In the case of “N-terminal HA-tagged R2R1 construct (in pT7CFE1 vector) (from UniProt B3EWG3 1-89)”, the binding [1] is reported as “binds” and the binding [2] is reported as “binds”.
